Screening data, single-dose tests

Amino acid sequences for entries named in this document (tags omitted). Residues count along the entry.
UniProt Q4DA54, 1-478: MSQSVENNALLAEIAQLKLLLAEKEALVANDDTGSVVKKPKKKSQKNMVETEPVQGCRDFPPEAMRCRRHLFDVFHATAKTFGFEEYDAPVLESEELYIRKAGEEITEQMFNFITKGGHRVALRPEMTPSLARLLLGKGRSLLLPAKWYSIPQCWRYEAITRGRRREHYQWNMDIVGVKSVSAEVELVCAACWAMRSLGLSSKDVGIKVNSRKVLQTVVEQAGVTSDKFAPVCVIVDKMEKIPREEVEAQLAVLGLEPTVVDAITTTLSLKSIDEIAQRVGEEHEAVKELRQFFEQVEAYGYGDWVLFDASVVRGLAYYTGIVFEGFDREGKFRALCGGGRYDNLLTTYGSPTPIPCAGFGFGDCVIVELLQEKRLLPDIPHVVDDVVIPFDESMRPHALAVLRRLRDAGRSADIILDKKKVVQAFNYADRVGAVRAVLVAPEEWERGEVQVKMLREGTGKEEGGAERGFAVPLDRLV
UniProt P9WNZ1, whole entry: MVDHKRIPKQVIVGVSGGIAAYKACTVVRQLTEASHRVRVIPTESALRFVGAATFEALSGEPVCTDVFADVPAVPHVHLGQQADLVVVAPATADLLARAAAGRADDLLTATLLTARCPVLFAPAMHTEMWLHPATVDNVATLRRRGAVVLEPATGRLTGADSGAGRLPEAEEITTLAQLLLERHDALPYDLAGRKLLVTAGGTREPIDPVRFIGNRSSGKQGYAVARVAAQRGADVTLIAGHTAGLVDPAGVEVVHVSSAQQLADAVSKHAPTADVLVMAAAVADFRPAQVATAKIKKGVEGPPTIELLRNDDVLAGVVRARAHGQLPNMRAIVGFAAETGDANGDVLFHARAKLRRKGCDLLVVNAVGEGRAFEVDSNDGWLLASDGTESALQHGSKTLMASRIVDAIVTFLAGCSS
UniProt A4I591, 1-473: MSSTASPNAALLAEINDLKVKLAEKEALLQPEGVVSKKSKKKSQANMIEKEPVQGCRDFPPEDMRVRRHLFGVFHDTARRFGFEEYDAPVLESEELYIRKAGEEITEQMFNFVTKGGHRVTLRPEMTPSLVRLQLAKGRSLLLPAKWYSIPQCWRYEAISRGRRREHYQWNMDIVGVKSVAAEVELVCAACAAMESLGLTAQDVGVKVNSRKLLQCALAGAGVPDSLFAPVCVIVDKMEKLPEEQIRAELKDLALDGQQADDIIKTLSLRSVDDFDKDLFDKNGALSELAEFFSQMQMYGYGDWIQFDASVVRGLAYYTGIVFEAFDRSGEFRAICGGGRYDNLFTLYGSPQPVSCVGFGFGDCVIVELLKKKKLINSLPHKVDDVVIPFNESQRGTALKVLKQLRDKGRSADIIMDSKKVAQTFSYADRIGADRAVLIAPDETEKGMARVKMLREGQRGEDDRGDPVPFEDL

Data taken from ChEMBL document CHEMBL3988442, “University of Dundee, Small-Polar-MMV Screening Library” (2021).

Results are given as percent effect.
How 0% and 100% were set is not recorded. Most values in the screen are low, and negative values occur.
Compounds were drawn at random from those tested, without regard to their results.
Two or more numbers in one place are separate tests of the same structure; such repeats can differ widely.
A dash means the value is not listed here; it may have been measured.

TcHisRS: 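Enzyme assay of histidyl-tRNA synthetase; the read-out is not stated. Target: Histidine-tRNA ligase, Trypanosoma cruzi CL Brener (UniProt Q4DA54). Concentration: 30 µM. Higher reads as stronger inhibition (inferred: compounds with an IC50 in retests scored well above the rest). About 69,000 compounds were tested under these conditions; 0.045% (about 31) showed 50% or more at least once.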
CoaBC: 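Coenzyme A biosynthesis protein CoaBC, Mycobacterium tuberculosis (UniProt P9WNZ1). Enzyme assay of CoaBC with a phosphate dye (Biomol Green) read at 650 nm. Compounds at 30 µM. Direction is inferred from only a few compounds that gave an IC50; most scored high, so higher reads as stronger inhibition. Most strong results did not repeat in a second test. Size under these conditions: about 67,000 compounds, about 40 of them at 50% or above in at least one test.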
LiHisRS: 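Histidine-tRNA ligase, Leishmania infantum (UniProt A4I591). Enzyme assay of histidyl-tRNA synthetase; the read-out is not stated. Concentration: 30 µM. Higher reads as stronger inhibition (inferred: compounds with an IC50 in retests scored well above the rest). The assay is labelled LdHisRS but filed under L. infantum. About 69,000 compounds were tested under these conditions; 0.6% (about 410) showed 50% or more at least once.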

compound	TcHisRS	CoaBC	LiHisRS
Cc1ccc(C(NC(=O)CCNC(=O)c2ccoc2)C(F)(F)F)cc1 (configuration not stated)	14.46%	1.238%	10%
CC(C)(C)NC(=O)C1CSCN1S(=O)(=O)c1cccc(F)c1 (configuration not stated)	4.959%	1.066%	11.54%
N#Cc1ccc(OC2CCN(C(=O)c3ccc(Br)o3)CC2)nc1	3.061%	-0.8739%	-4.959%
COCC(=O)N(C)Cc1nc(N2CCCC2)ncc1-c1ccncc1	11.36%	-2.219%	11.27%
C[C@H]1C[C@@H]2CCN(C(=O)c3ccccn3)C[C@H]2O1	3.659%	-1.253%	-7.692%
CC(C)(C)CNCC1(O)CCCN(Cc2ccccc2F)C1=O (configuration not stated)	-1.02%	4.968%	2.857%
COc1cccc(S(=O)(=O)CCN2CCN(CC(F)F)CC2)c1	1.02%	3.121%	3.306%
CNc1ncccc1CN1CCN(C(C)=O)CC(C(N)=O)C1 (configuration not stated)	4.981%	2.427%	7.143%
COc1ccc(-n2c(CCC(=O)O)nc3ccccc32)cc1CO	3.061%	35.21% and 8.466%	60%
Cc1ccc(C(=O)Nc2cn[nH]c2)cc1C	2.662%	-1.596%	26.4%
Cc1ccc2c(C)c(C(=O)NCc3csc(N)n3)oc2c1	10.05%	-8.961%	14.71%
COc1ccc(CN(C)C(=O)NC(C)c2nncn2C)cc1F (configuration not stated)	4.233%	-3.748%	12.12%
Cc1ocnc1C(=O)N(Cc1cccnc1)C[C@@H]1CCC(=O)N1	5.263%	-	7.5%
Cc1nn(C)cc1-c1ccnc(N2CCN(c3ccccc3)C(=O)C2)n1	7.821%	1.285%	8.333%
COc1ccc(-c2nc(CNC(C)Cn3cccn3)cs2)cc1 (configuration not stated)	6.18%	-1.408%	0%
CC(C)COc1cncc(N2CCCN(CC(F)(F)F)CC2)n1	5.357%	3.648%	12.39%
Cc1nn(CC(=O)N(C)Cc2nncn2C(C)C)c(=O)c2ccccc12	6.186%	-12.98%	21.84%
CC(C)c1noc(C2CCCN2C(=O)CN2CCc3ccccc32)n1 (configuration not stated)	14.46%	5.198%	20%
O=C1CCC[C@]2(CN(S(=O)(=O)N3CCCCC3)C[C@H]2c2cccnc2)N1	8.647%	-7.925%	9.929%
CCn1nc(C)c(NC(=O)c2nnn(Cc3ccccc3)c2OC)c1C	6.087%	-9.238%	17.24%
Cn1cc(C(=O)N2CC[C@@H]3[C@@H]2CCN3Cc2cccc(F)c2)cn1	-1.657%	3.085%	15.04%
Cc1occc1C(=O)N1CCO[C@H]2[C@H](OCc3ccccn3)CC[C@@H]21	8.163%	1.607%	21%
CCc1ncc2c(n1)CN(CC(=O)Nc1cc(C)no1)CC2	9.605%	1.828%	15.52%
Fc1ccc2c(c1)C1(CCNCC1)CC2NC1CC1 (configuration not stated)	8.84%	-0.2475%	18.92%
Cc1ccc(C2C3=C(COC3=O)Nc3[nH]nc(C)c32)cc1C (configuration not stated)	4.918%	7.941%	9.709%
NC(=O)CN(Cc1ccc(Br)cc1)C(=O)c1ccccn1	2.762%	0.8929%	7.292%
CCOCCCNC(=O)C(NC(=O)Cc1cccs1)c1ccccc1 (configuration not stated)	1.22%	1.772%	18.42%
CCC(C)(C)C(=O)N1C[C@@H]2C[C@@H](c3nnc(C)[nH]3)O[C@@H]2C1	-0.5587%	3.03%	3.846%
CCOc1ccc(-c2nc(C(=O)NCC3CCOC3)cs2)cc1 (configuration not stated)	4.598%	3.484%	8.696%
Cn1cnc2nc3n(c2c1=O)CCC3	10.31%	7.83%	8.046%
NC(=O)Cn1c(CO)cnc1SCc1ccccc1Cl	8.808%	0.1122%	17.2%
Clc1ccc(CN2CCCC2Cn2cncn2)c2ncccc12 (configuration not stated)	4.956%	11.58%	11.01%
Cc1cc(-c2ccccc2C(=O)O)nc(C2CCCN2S(C)(=O)=O)n1 (configuration not stated)	-6.154%	-8.314%	5.634%
Cn1cccc1C(=O)N[C@@H]1CN(S(C)(=O)=O)[C@@H]2COC[C@@H]21	0.9804%	7.492%	14.29%
Cc1nn(C)c(N(C)C)c1CNCc1ccccc1Cn1cncn1	-3.383%	3.655%	5.405%
Fc1ccc(-c2cnc(CNC3CCc4ncnn4C3)o2)cc1 (configuration not stated)	12.17%	0%	14.71%
CCn1nc(C)c2c1cnn2CC(=O)N1CCN(C)CC1	-2.212%	2.103%	20.35%
COC[C@@]12CCO[C@@H]1CCN(C(=O)C1CCSCC1)C2	2.062%	4.68%	20%
COc1cc(OC)cc(N2CCC(NCc3cc[nH]n3)C2)c1 (configuration not stated)	13.64%	0.8464%	14.52%
O=C(C[C@@H]1COC[C@H]2CN(Cc3ccccc3)C[C@@H]12)N1CCCC1	2.439%	3.258%	23.08%
CCS(=O)(=O)N1CCc2c(nc(C3CCCN3)nc2NC)C1 (configuration not stated)	5.385%	-1.188%	7.042%
CSc1cccc(CN(C)C(=O)Nc2nc(C)n(C)n2)c1	0%	1.542%	5.208%
CC(=O)NC(C(=O)N(C)Cc1nnc2n1CCC2)C(C)C (configuration not stated)	3.185%	-	9.859%
Cn1ccc(NC(=O)CN2C[C@H]3CC[C@@H]2CN(S(C)(=O)=O)C3)n1	11.49%	2.829%	12.9%
Cc1noc(C)c1-c1cncc(C2CCCN2Cc2ncccc2F)n1 (configuration not stated)	2.247%	1.115%	6%
COc1ccc(NC(=O)c2cnc(N(C)C3CCCCC3)nc2N)cc1	16.1%	2.886%	16.95%
CC1CCCN(C(=O)c2cccc(CS(C)(=O)=O)c2)C1 (configuration not stated)	0%	1.036%	10.64%
COC(=O)c1cccc2nc([C@H]3CCN(Cc4ccccc4F)C3)oc12	0.4975%	2.554%	27.03%
CSCC(=O)N1CCC2(CC1)c1ccccc1CC2O (configuration not stated)	-0.8368%	8.182%	14.15%
Cn1cc(C2CC(=O)NC23CCN(C(=O)Cc2ccccn2)CC3)cn1 (configuration not stated)	7.619%	2.096%	5.556%
CC(C)[C@H]1CN(S(=O)(=O)c2cccnc2)C[C@@H]1N	7.143%	-4.232%	9.677%
CSC(C)C(=O)N1CCCN(Cc2nccn2C)CC1 (configuration not stated)	-0.5634%	4.707%	6.087%
CN(Cc1nnc2n1CCC2)C(=O)c1ccc2c(c1)OCCCO2	-2.616%	-1.281%	6.14%
O=C(O)c1ccccc1-c1ccc(CN2CCOCC2)cn1	7.28%	-2.67%	15.71%
O=C1NCCN1C1CCN(CCOc2ccccc2Cl)CC1	5.539%	4.857%	12.84%
Cc1cc(CN2CCOC(CNc3cccnn3)C2)on1 (configuration not stated)	24.78%	10.68%	42.86%
CCOc1ccccc1N1CCN(CC2(O)CCCNC2)CC1 (configuration not stated)	6.404%	-17.1%	9.211%
COc1cccc2c1OCC(C(=O)NCCn1nc(C)c(Cl)c1C)C2 (configuration not stated)	1.961%	3.902%	17.6%
CCCN1C(=O)c2ccccc2C1OC (configuration not stated)	7.921%	-2.67%	11.9%
COCCC1(CO)CCCN(C(=O)c2cc(Cl)ccc2F)C1 (configuration not stated)	3.017%	0.8872%	11.39%
CN(Cc1cccc(-n2cccn2)c1)C(=O)c1cccc(N(C)C)c1	0%	1.356%	9.677%
COCC(=O)N1CC[C@@H]2O[C@@H](COCc3csc(C)n3)CC[C@@H]21	7.182%	-4.884%	12.03%
O=C(c1ccc(-n2ccnc2)cc1)N1CCCC1	10.24%	11.34%	10.99%
Cc1nc[nH]c1-c1nccn1-c1cccc(CN2CCCC2)c1	4.712%	-1.852%	1.075%
Cc1ccccc1-n1c(C)cc(=O)[nH]c1=O	0%	2.058%	11.96%
Cc1csc(N2CCCN(Cc3noc(C)n3)CC2)n1	7.143%	4.961%	13.51%
CSCCc1ccc(NC(=O)NC(C)Cn2cncn2)cc1 (configuration not stated)	6.383%	0.8032%	13.43%

The last 6 entries again:

compound,TcHisRS,CoaBC,LiHisRS
COCC(=O)N1CC[C@@H]2O[C@@H](COCc3csc(C)n3)CC[C@@H]21,7.182%,-4.884%,12.03%
O=C(c1ccc(-n2ccnc2)cc1)N1CCCC1,10.24%,11.34%,10.99%
Cc1nc[nH]c1-c1nccn1-c1cccc(CN2CCCC2)c1,4.712%,-1.852%,1.075%
Cc1ccccc1-n1c(C)cc(=O)[nH]c1=O,0%,2.058%,11.96%
Cc1csc(N2CCCN(Cc3noc(C)n3)CC2)n1,7.143%,4.961%,13.51%
CSCCc1ccc(NC(=O)NC(C)Cn2cncn2)cc1 (configuration not stated),6.383%,0.8032%,13.43%